Substitutions are numbered along the chain they refer to. No constants are given. Whether binding was seen depends on the method and setting. Binding can be weak; no strength is given. For some of these results: Sequences can lack the tags named with a protein.

By UniProt entry, the sequences of proteins in these tests, tags left out. Where a name states a change or a piece, a line headed by the entry shows the natural chain unless it says otherwise.
UniProt Q9P126: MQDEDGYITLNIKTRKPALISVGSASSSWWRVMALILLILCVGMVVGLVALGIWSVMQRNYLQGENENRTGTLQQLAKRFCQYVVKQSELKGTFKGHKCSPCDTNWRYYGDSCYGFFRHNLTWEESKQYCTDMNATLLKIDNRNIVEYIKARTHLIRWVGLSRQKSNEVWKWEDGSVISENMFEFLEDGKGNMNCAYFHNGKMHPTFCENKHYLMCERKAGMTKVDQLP

The source of these data is article PMC4826181.

The target in experiment [1] is T1, human podoplanin PLAG1-deletion mutant PDPN-Δ29–34, on CHO cells (human) (UniProt Q86YL7).
T1 sequence: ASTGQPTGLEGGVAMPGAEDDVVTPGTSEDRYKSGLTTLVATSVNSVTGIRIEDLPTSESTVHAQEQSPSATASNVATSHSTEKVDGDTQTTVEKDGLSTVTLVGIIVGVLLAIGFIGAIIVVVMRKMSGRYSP
Kind of experiment: flow cytometry on cells; CHO cells stably expressing podoplanin WT or mutants incubated with 0.4 μg/mL CLEC-2-(His)10, then Alexa Flour 488-conjugated anti-penta-His antibody; peak values normalised to PDPN-WT/CHO; only the binder purified.

Experiment [2] concerns the target T2, human podoplanin PLAG3-deletion mutant PDPN-Δ47–52, on CHO cells (human) (UniProt Q86YL7).
T2 sequence: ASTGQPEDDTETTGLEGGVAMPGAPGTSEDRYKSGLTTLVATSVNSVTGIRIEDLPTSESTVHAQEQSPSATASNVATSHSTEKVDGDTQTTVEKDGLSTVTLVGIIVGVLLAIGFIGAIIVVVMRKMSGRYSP
Described as above.

Experiment [3] has as its target T3, human podoplanin PLAG4-deletion mutant PDPN-Δ81–85, on CHO cells (human) (UniProt Q86YL7).
T3 sequence: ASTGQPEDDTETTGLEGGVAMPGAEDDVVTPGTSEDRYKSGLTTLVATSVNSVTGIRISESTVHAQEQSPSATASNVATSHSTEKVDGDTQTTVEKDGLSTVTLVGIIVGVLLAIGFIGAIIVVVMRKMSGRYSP
Described as above.

Experiment [4] deals with T4, human podoplanin double point mutant PDPN-D48A/D82A, on CHO cells (human) (UniProt Q86YL7).
T4 sequence: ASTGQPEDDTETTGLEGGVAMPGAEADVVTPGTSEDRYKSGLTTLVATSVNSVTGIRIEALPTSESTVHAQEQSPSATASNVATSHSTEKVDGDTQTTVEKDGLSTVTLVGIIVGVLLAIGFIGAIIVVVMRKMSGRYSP
Described as above.

For experiment [5], the target named is T5, human podoplanin point mutant PDPN-D48A, on CHO cells (human) (UniProt Q86YL7).
T5 sequence: T4 sequence with A60D
Described as above.

Experiment [6] deals with T6, human podoplanin point mutant PDPN-D82A, on CHO cells (human) (UniProt Q86YL7).
T6 sequence: T4 sequence with A26D
The experiment is described as above.

The target of experiment [7] is T7, human podoplanin, wild type (PDPN-WT), expressed on CHO cells (human) (UniProt Q86YL7).
T7 sequence: T4 sequence with A26D, A60D
Described as above.

Experiment [8] concerns the target T5, human podoplanin point mutant PDPN-D48A, on CHO cells (human). Kind of experiment: flow cytometry on cells; competition: CHO/PDPN-WT or CHO/PDPN-D48A cells incubated with control IgG or anti-podoplanin mAbs (up to 100 μg/mL), then 0.4 μg/mL CLEC-2-(His)10, then Alexa Flour 488-conjugated anti-penta-His antibody; only the binder purified. In general terms: A flow cytometer gives signals particle by particle.

Experiment [9] has as its target T7, human podoplanin, wild type (PDPN-WT), expressed on CHO cells (human). The description is as above.
Experiment [10] addresses T8, recombinant human podoplanin-Fc protein (human) (UniProt Q86YL7).
T8 sequence: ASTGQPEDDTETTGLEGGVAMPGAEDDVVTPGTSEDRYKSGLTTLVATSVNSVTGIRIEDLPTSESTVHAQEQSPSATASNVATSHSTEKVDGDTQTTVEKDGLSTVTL
Kind of experiment: AlphaScreen or HTRF; Podoplanin-Fc (1 ng/well) first incubated with control or anti-podoplanin antibodies in a 96-well plate, then CLEC-2-(His)10 (30 ng/well); Nickel Chelate Donor beads and Protein A Acceptor beads; 30 min at RT; no IgG control taken as 100%; both purified.

Take “(His)10-tagged human CLEC-2 protein (from UniProt Q9P126) (receptor)”: the binding result in [1] is given as “binds”; in experiment [2] it was “binds”; in [3], “binds”; in experiment [4], “binds weakly”; in experiment [5], “binds”; in [6] it was “binds”. In addition, the binding result in experiment [7], in experiment [8], in experiment [9] and in experiment [10] was “binds” in each case.
